The text below walks through data of paper PMC3667834.

Results are given in words; binding and its absence hold for the method and conditions named.

The assay deals with T1, OsMKK6 (Oryza sativa (indica rice, cultivar Pusa Basmati 1)) (UniProt Q5QN75).
T1 sequence: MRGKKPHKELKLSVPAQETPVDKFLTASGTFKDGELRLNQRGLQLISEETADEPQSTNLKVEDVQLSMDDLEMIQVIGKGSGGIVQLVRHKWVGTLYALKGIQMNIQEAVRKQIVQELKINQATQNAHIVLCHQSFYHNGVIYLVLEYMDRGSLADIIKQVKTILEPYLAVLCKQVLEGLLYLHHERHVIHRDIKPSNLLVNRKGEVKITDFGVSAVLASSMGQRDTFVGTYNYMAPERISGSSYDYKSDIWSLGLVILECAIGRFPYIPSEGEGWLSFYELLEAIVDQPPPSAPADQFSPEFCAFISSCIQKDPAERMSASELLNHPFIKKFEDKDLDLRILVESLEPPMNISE
Description: two-hybrid; Matchmaker system, yeast AH109; MAPKK fused to GAL4 DNA-binding domain (pGBKT7) as bait, MAPK fused to GAL4 activation domain (pGADT7) as prey; co-transformants selected on SD/-Leu/-Trp, interaction read as growth on SD/-Ade/-His/-Leu/-Trp.

B1: OsMPK3 (enzyme, UniProt A2XFC8 1-369)
chain: MDGAPVAEFRPTMTHGGRYLLYDIFGNKFEVTNKYQPPIMPIGRGAYGIVCSVMNFETREMVAIKKIANAFNNDMDAKRTLREIKLLRHLDHENIIGIRDVIPPPIPQAFNDVYIATELMDTDLHHIIRSNQELSEEHCQYFLYQILRGLKYIHSANVIHRDLKPSNLLLNANCDLKICDFGLARPSSESDMMTEYVVTRWYRAPELLLNSTDYSAAIDVWSVGCIFMELINRQPLFPGRDHMHQMRLITEVIGTPTDDELGFIRNEDARKYMRHLPQYPRRTFASMFPRVQPAALDLIERMLTFNPLQRITVEEALDHPYLERLHDIADEPICLEPFSFDFEQKALNEDQMKQLIFNEAIEMNPNIRY
As for B1, the binding entry is “no binding”.
